Measured values taken from PubChem BioAssay AID2551 (National Center for Advancing Translational Sciences (NCATS), 2010).
In all, about 310,000 compounds went through this assay and about 17,000 (5.5%) were called active. The inconclusive results got no clear call from the source; some entries with a clear call stand among them for comparison. The call rests on the fitted dose curve; in most records, active means well fitted inhibition curve with a large enough effect; inconclusive means small, poorly fitted or top-dose-only effect, or effect the other way; inactive means no such curve, though single readings can be large or run the other way. Where the call is inconclusive, the potency comes from a doubtful curve fit.

The chains behind the UniProt entries cited, without tags or fusion partners. Where a name states a change or a piece, a line headed by the entry shows the natural chain unless it says otherwise.
UniProt P51450: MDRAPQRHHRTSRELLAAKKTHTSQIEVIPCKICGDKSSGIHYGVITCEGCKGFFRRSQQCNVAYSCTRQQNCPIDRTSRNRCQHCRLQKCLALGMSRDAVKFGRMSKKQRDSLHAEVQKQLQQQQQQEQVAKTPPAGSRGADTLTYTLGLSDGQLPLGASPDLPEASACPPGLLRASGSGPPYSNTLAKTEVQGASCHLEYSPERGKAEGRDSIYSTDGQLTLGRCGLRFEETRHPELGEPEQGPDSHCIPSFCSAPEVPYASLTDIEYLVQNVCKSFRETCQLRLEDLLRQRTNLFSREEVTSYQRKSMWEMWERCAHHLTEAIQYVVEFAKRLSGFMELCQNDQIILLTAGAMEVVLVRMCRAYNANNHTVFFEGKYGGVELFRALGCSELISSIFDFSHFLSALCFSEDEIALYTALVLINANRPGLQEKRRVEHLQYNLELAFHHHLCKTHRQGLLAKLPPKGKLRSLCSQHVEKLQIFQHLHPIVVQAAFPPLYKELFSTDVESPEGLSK

target: Nuclear receptor ROR-gamma (Mus musculus) (UniProt P51450); experiment: qHTS for inhibitors of ROR gamma transcriptional activity; settings: Drosophila S2 Gal4-RORgamma UAS-luciferase reporter, 20 h; series mostly up to 53.6 µM; further: nearly all actives have a fitted effect of over 60% in size
Procedure, shortened: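 Schneider cells (Drosophila), stable Gal4 DBD–ROR gamma + UAS-luc; 1 hr cmpd preincubation; Cu2+ induction 700 uM final; 20 hr ambient; luminescence.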
Potency means the concentration at half of the fitted maximal effect.

Compound	Potency
CCCC(=O)NC(=S)Nc1cccc(Cl)c1N1CCCC1	active: 1.26 µM
CCOCCCNC(=S)NNC(=O)CCn1nc(C)c(Br)c1C	active: 1.41 µM
Cc1c(C(=O)OCc2nc3scc(-c4ccccc4)c3c(=O)[nH]2)cccc1[N+](=O)[O-]	inconclusive: 20 µM [activator, single point]
O=C(C=C1SCCS1)/C=C/c1ccco1	inconclusive: 12.6 µM [inhibitor, single point]
COc1ccc(NC(=S)NN2C(C)CCCC2C)cc1 (stereo not given)	active: 7.94 µM
COC(=O)C(Cc1ccc(OC(=O)c2ccccc2C)cc1)N1Cc2ccccc2C1=O (stereo not given)	inconclusive: 35.5 µM [activator, single point]
COc1ccc(NS(=O)(=O)c2cccc(NC(=O)C3=NN(c4ccccc4)C(=O)CC3)c2)cc1	inconclusive: 6.31 µM [activator, single point]
Cc1nc2ccc([N+](=O)[O-])cc2s1	inconclusive: 3.98 µM [inhibitor, single point]
CN(C)S(=O)(=O)c1cccc(C(=O)Nc2ccccc2)c1	inactive
CN(C)C(=O)c1ccc2c(c1[N+](=O)[O-])C(=O)c1ccccc1C2=O	active: 2.24 µM
OCC1CCCN(C(=S)Nc2ccc(Nc3ccccc3)cc2)C1 (stereo not given)	active: 7.08 µM
CCC(=O)N1CCc2cc(S(=O)(=O)Nc3ccc4c(c3)OCCO4)ccc21	inconclusive: 15.8 µM [activator, single point]
N#Cc1c(NC(=O)CSc2ncn[nH]2)sc2c1CCCC2	active: 0.316 µM
CN(Cc1ccccc1)C(=O)[C@H](Cc1ccc2ccccc2c1)NC(=O)[C@@H]1CCCN1C(=O)Nc1ccccc1[N+](=O)[O-]	inactive
COc1ccc(/C=C(\NC(=O)c2ccccc2)C(=O)N/N=C/c2cccnc2)cc1	inconclusive: 10 µM [activator, partial curve, poor fit]
c1ccc2c(c1)nnn1c3ccccc3nc21	inconclusive: 12.6 µM [inhibitor, single point]
Cc1ccc(-n2ncc3c(NNC(=O)c4ccco4)ncnc32)cc1Cl	active: 3.16 µM
CCOC(=O)c1c(C)nc2sc3c(=O)n(-c4ccc(OC)cc4)nnc3c2c1-c1ccc(OC)cc1	inactive
COc1ccc(NC(=O)CN2CCc3ccccc3C2)c([N+](=O)[O-])c1	inconclusive: 22.4 µM [activator, single point]
CC(C)(C)NC(=O)COc1ccc(-c2ccccc2)cc1	inconclusive: 10 µM [activator, partial curve]
O=C(COc1ccccc1-c1ccccc1)N/N=C/c1ccccn1	inconclusive: 22.4 µM [inhibitor, single point]
CCOc1ccc2nc(NC(=O)C(CC)Sc3nc(C)cc(=O)[nH]3)sc2c1 (stereo not given)	inconclusive: 3.55 µM [activator, single point]
CCCc1ccc(-c2cc(NC(=O)CSc3nnc(N)s3)n(-c3ccccc3)n2)cc1	inconclusive: 3.16 µM [activator, single point]

Compound	Potency
O=C(NCc1ccccc1F)C1CCCN1S(=O)(=O)c1ccc(F)cc1 (stereo not given)	inconclusive: 7.08 µM [inhibitor, partial curve]
O=C(NCC(O)c1ccccc1)c1ccc(Cl)c(S(=O)(=O)N2CCCCC2)c1 (stereo not given)	inconclusive: 12.6 µM [activator, single point]
CCC1(C)Cc2c(sc3nc(SCC(=O)c4ccccc4)[nH]c(=O)c23)CO1 (stereo not given)	inactive
Cc1ccc(S(=O)(=O)Nc2cc(Cl)c(O)c3ncccc23)cc1	active: 0.708 µM
COc1ccc(/C=C2\SC(=O)N(CC(=O)Nc3cccnc3)C2=O)cc1OC	inactive
O=C(N/N=C/c1ccc(O)cc1O)c1ccc(NC(=O)C2CCCCC2)cc1	inconclusive: 35.5 µM [inhibitor, single point]
Cc1c(CCOC(=O)C23CC4(C)CC(C)(CC(C)(C4)C2)C3)sc[n+]1CC(=O)c1ccccc1	inactive
Cc1ccc(-c2ccc(/C=C(\C#N)C(N)=S)o2)c([N+](=O)[O-])c1	active: 11.2 µM
O=C(O)c1ccc(N/N=C/c2cc3ccccc3nc2Cl)cc1	inconclusive: 11.2 µM [inhibitor, partial curve]
S=C(Nc1ccccc1)N1CCCCCCC1	inconclusive: 11.2 µM [inhibitor, single point]
CC(C)CNC(=O)c1cccc(NC(=O)c2ccc(Cl)c([N+](=O)[O-])c2)c1	inconclusive: 14.1 µM [activator, single point]
Clc1ccccc1-c1nccc(NCc2cccs2)n1	inconclusive: 10 µM [activator, partial curve, poor fit]
CC1=NN(C(=O)c2ccccc2-n2cccc2)C(O)(C(F)(F)F)C1 (stereo not given)	active: 10 µM
Cc1sc(NC(=O)/C=C/C(=O)O)c(C(N)=O)c1-c1ccc(C(C)(C)C)cc1	inconclusive: 10 µM [activator, partial curve]
OC(COc1ccccc1Cl)CN1CCN(CC(O)COc2ccccc2Cl)CC1 (stereo not given)	inconclusive: 0.398 µM [inhibitor, full curve, poor fit]
CCOC(=O)c1ccc(NC(=O)NC(C)C2CCCO2)cc1 (stereo not given)	inconclusive: 8.91 µM [activator, partial curve]
O=C(NCc1cccc(C(F)(F)F)c1)C1CC(c2ccccc2[N+](=O)[O-])=NO1 (stereo not given)	inactive
CCCCNC(=S)N(CCN(CC)CC)Cc1cc2cc3c(cc2[nH]c1=O)OCCO3	inactive
COCCN(CCOC)c1nc(-c2ccc([N+](=O)[O-])cc2)nc2ccccc12	inconclusive: 3.16 µM [activator, single point]
CC(C)CN1C(=S)SC(C)(C)C1n1oc(=O)n(-c2ccc(Cl)cc2)c1=O (stereo not given)	inconclusive: 31.6 µM [inhibitor, single point]
NC(=O)CSc1nnc(-c2cc3ccccc3o2)n1Cc1ccccc1	inconclusive: 35.5 µM [inhibitor, single point]
CCc1ccc(NC(=O)Nc2ccc3c(c2)CCC3)cc1	inactive

A different layout for part of the listing above.
CCOC(=O)c1ccc(NC(=O)NC(C)C2CCCO2)cc1 (stereo not given)
  Potency: inconclusive: 8.91 µM [activator, partial curve]
O=C(NCc1cccc(C(F)(F)F)c1)C1CC(c2ccccc2[N+](=O)[O-])=NO1 (stereo not given)
  Potency: inactive
CCCCNC(=S)N(CCN(CC)CC)Cc1cc2cc3c(cc2[nH]c1=O)OCCO3
  Potency: inactive
